Patent US12161630B2, “Methods to control infection using new generation small molecule growth inhibitors” (priority 2017, dated 2024)
“Also recorded” adds a separate entry of the source.

System: chicken cecal microbiota
Assay: Cecal microbiota 16S rRNA sequencing of SM-treated infected chickens
Assay type: in vivo, broiler chickens
Details: for impact on the cecal microbiota: infected broilers, compared to DMSO group
Protocol: DNA extraction and sequencing: Microbiota diversity and abundance were investigated using the second cecum directly stored in −80° C. Genomic DNA was extracted using the PureLink Microbiome DNA Purification Kit (Life Technologies, Invitrogen Corp.), combined with RNAse treatment (10 units/hour). About 0.15 g to 0.20 g of cecum content was processed according to manufacturer's instructions. After quality control with electrophoresis and nanodrop, extracted DNA samples were subjected for 16S rRNA V4-V5 variable region sequencing. As a first step of targeted sequencing, amplicon libraries were prepared by using Phusion® High-Fidelity PCR Kit (New England Biolabs Inc, Ipswich, MA) in a 96-well plate. 25 μL of PCR reactions were prepared using 5 μl (5×) of PCR buffer, 4 μl (5 ng/μl) of DNA sample, and 2.5 μl (2 μM) primer, 0.5 μl (10 mM) dNTPs, 0.2 μl of enzyme, and nuclease free water to final volume. The barcoded primers targeted the V4-V5 variable region. The following PCR conditions were used for amplifications: initial denaturation was at 96° C. for 2 min, and 25 cycles of 96° C. for 30 sec, 55° C. for 30 sec, 72° C. for 30 sec, with final extension of 72° C. for 5 min. Following PCR amplification, PCR products were cleaned using AMPure XP PCR (Beckman Coulter Inc, Beverly MA). Sample concentrations were measured, and equal concentration of all samples were pooled into one flow cell and sequenced using Illumina MiSeq 300-base, paired-end kit at the Molecular and Cellular Imaging Center (Ohio Agricultural Research & Development Center, Wooster, OH).
Bioinformatics analyses: After sequencing, a quality control of the raw reads was performed using FastQC (Babraham Bioinformatics, Cambridge, USA). Only nucleotides with a base sequence quality having a median quality score above 25 and lower quartile median quality score above 10 were used for further analysis. Trimmomatic was used for trimming and removal of NexteraPE-PE adapter sequences (15). Details concerning the parameters used are described in mcbl.readthedocs.io/en/latest/mcbl-tutorials-AD-clean.html. The resulting forward and reverse sequences were merged using Pandaseq (github.com/neufeld/pandaseq). During this step, any sequences with less than 0.7 threshold overlap was removed and primers used for amplification were trimmed. Controls containing only water and the extractions buffers used for the DNA extraction steps were analysis to confirm lack of contaminants. Then samples were processed using Quantitative Insights Into Microbial Ecology (QIIME) software version 1.9 (16). Operational Taxonomy Units (OTUs) were determined by clustering reads against Greengenes 16S reference dataset (2013-08 release) at a 97% identity using open picking reference OTU (pick_open_reference_otus.py) method using default parameters, except setting minimum OTU size to 10. Microbial diversity was studied after rarefication of the sequences based on the lowest number of sequences among the samples tested. Alpha and beta diversities were analyzed using the core analysis package (core_diveristy_analyses.py), which included the comparison of the phylogenetic diversity and richness, principal coordinate analysis, and relative abundance studies (summarize_taxa_through_plots.py). Identification of microbial difference between different diets was performed using linear discriminant analysis (LDA) in the Galaxy/Hutlab website (huttenhower.sph.harvard.edu/galaxy/).

[1] = compared to DMSO control (P<0.01)

Compound	impact on the cecal microbiota	higher level of Enterobacteriaceae in ceca [1]	increase in Clostridium in ceca [1]	increase in Leuconostocaceae OTUs in ceca [1]
CC1CCC(C(C)C)C(OC(=O)Cn2c[n+](CC(=O)OC3CC(C)CCC3C(C)C)c3ccccc32)C1.[Cl-] (stereo not shown) [SM1, 1,3-bis{2-[(2-isopropyl-5-methylcyclohexyl)oxy]-2-oxoethyl}-1H-3,1-benzimidazol-3-ium chloride]	more important alteration			
CCCCCCCCCCCCCCCC[n+]1ccn(CC#N)c1.[Cl-] [SM3, 1-(cyanomethyl)-3-hexadecyl-1H-imidazol-3-ium chloride]		2.5 fold	15 fold	10 fold
CCCCCCCCCCCCCCCCn1c[n+](C)c2ccccc21.[Br-] [SM4, 1-hexadecyl-3-methyl-1H-3,1-benzimidazol-3-ium bromide]	minimal impact; also recorded: more important alteration			
CCOc1cc(/C=N/N=C(N)N)ccc1OCc1ccc(Cl)cc1 [SM5, N″-{4-[(4-chlorobenzyl)oxy]-3-ethoxybenzylidene}carbonohydrazonic diamide]	minimal impact			increase
